Results are given in words; binding and its absence hold for the method and conditions named. Some entries that bind do so weakly or less than the wild type. Tags and fused reporters may be left off the sequences shown.
T1: DBD-DnaD23Δ154-155 (DnaD with A166T and the deletion of amino acids 154-155, fused to the DNA binding domain of Gal4) (B. subtilis) (UniProt P39787)
T1 sequence: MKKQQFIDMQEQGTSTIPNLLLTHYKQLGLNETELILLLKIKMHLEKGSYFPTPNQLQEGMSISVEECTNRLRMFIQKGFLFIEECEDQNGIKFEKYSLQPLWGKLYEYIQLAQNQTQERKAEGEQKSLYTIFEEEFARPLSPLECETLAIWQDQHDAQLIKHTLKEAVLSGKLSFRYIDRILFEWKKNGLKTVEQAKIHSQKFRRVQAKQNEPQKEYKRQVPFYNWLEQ

T2: DBD-DnaD23T148M (DnaD with A166T and T148M, fused to the DNA binding domain of Gal4) (B. subtilis) (UniProt P39787)
T2 sequence: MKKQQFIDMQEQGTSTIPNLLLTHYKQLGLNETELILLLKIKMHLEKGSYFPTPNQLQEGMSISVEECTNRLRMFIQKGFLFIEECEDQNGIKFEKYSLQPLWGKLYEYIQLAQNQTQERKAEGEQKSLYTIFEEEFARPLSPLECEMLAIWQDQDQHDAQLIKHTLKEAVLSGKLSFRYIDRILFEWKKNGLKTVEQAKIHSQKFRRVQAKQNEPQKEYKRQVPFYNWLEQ

T3: DBD-DnaD23W188L (DnaD with A166T and W188L, fused to the DNA binding domain of Gal4) (B. subtilis) (UniProt P39787)
T3 sequence: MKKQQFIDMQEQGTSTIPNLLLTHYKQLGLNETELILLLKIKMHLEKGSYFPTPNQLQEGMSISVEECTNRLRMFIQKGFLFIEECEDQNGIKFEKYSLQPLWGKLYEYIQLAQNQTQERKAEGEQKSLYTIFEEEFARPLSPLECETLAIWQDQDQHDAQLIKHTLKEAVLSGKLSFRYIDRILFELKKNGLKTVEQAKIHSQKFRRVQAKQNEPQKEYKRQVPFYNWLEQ

T4: DBD-DnaD (wild type DnaD fused to the DNA binding domain of Gal4) (B. subtilis), P39787
T4 chain: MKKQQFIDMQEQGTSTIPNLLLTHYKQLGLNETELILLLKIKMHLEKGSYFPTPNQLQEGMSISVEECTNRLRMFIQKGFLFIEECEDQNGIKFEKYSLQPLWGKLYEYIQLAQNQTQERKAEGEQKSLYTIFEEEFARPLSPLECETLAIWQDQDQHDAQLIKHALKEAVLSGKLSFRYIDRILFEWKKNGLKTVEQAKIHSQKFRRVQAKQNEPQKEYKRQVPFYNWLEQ


Experiments:
Assay in all cases: two-hybrid; yeast two-hybrid in strain DWY112: DnaB fused to the Gal4 activation domain, DnaD forms fused to the Gal4 DNA binding domain (pGBDU-C3); interaction drives ADE2, read as growth on medium lacking adenine
[1] = target: T1, DBD-DnaD23Δ154-155 (DnaD with A166T and the deletion of amino acids 154-155, fused to the DNA binding domain of Gal4) (B. subtilis)
[2] = target: T2, DBD-DnaD23T148M (DnaD with A166T and T148M, fused to the DNA binding domain of Gal4) (B. subtilis)
[3] = target: T3, DBD-DnaD23W188L (DnaD with A166T and W188L, fused to the DNA binding domain of Gal4) (B. subtilis)
[4] = target: T4, DBD-DnaD (wild type DnaD fused to the …); settings: remark: other sources report otherwise

Row | binding [1] | binding [2] | binding [3] | binding [4] | Binder
1 | binds | no binding | no binding | – | AD-DnaB (wild type DnaB fused to the activation domain of Gal4) (protein, UniProt P07908 1-472) MADYWKDVLPVDPYVVKSRSMLQDIDRQIITQLYQPLIGPVAFSLYMTLWGELEQNRLWGGESTHRQLMGMTQSNLKTIHQEQGKLEGIGLLKVYMKESERQERLFIYELLPPLRPNEFFEDGMLNVFLYNRVGKTKYQQLKQFFTHPAISEDAKDITRPFNHAFESLQPSEWKLTSDMEETVRLAEGSEYTSVGQSPSYTITEDVFDFDLFLAGLSETMIPRKAMTQQVRDTIKKLSYLYGIDPLQMQNVVMSAIDERDVITTEALRKAASDWYQIERNGQLPDLVEKTQPVHLREGEQPAEEDSLDGKLIALLEAISPKKLLQDIADGTEPSKADLKIIEEIMFEQKLEPGVTNVLIYYVMLKTDMKLSKNYIQKIASHWARKKVKTVREAMKLAIEENRQYLEWAEGKTKSSKRNQKVIREEKLPDWMTEKETASDSESGQQKLHPQDLEEQKKKMMEEMQKLKKYSAY
2 | – | – | – | no binding | AD-DnaB (wild type DnaB fused to the activation domain of Gal4), P07908 1-472 (protein) MADYWKDVLPVDPYVVKSRSMLQDIDRQIITQLYQPLIGPVAFSLYMTLWGELEQNRLWGGESTHRQLMGMTQSNLKTIHQEQGKLEGIGLLKVYMKESERQERLFIYELLPPLRPNEFFEDGMLNVFLYNRVGKTKYQQLKQFFTHPAISEDAKDITRPFNHAFESLQPSEWKLTSDMEETVRLAEGSEYTSVGQSPSYTITEDVFDFDLFLAGLSETMIPRKAMTQQVRDTIKKLSYLYGIDPLQMQNVVMSAIDERDVITTEALRKAASDWYQIERNGQLPDLVEKTQPVHLREGEQPAEEDSLDGKLIALLEAISPKKLLQDIADGTEPSKADLKIIEEIMFEQKLEPGVTNVLIYYVMLKTDMKLSKNYIQKIASHWARKKVKTVREAMKLAIEENRQYLEWAEGKTKSSKRNQKVIREEKLPDWMTEKETASDSESGQQKLHPQDLEEQKKKMMEEMQKLKKYSAY
